In publication doi:10.1101/2021.01.05.425376:

B1: Heh1^GFP (protein, UniProt Q03707 1-834)
chain: MNSDLEYLEDGFDPNSMKVATLRRILVENNVDFPSNARKNALVGLFDEKVKPQIPQLRKMYLNVRPSDEGIVKMDRPSSSPSIASPRRSRRARREKSASPMAKQFKKNRILDDVSNDDDDDDDDDDDNDKKDDPLIVPSGTDTDEVDDEEDDVITSSSNKSDTNDFQQNSDTRKKRKDPDSDDWSESNSKENKIDNKHLNLLSSDSEIEQDYQKAKKRKTSDLNQEHGNGSAILGKLSVKTPIKNTNRKPVSMDNFNDSLTSSGTENDPFVPNIRHNPKELGTANGTGHSTPLSKLKVSASFADKLPQKEVPSTILVPEVEQQEPSQSERTPSLFSSEGSGSESEAPLLPEITTPGPHQPMGNTSNNVVEMIDTDSSNLVSDEDEVLVPTRIETPQLPTEKDVEKCEARVQELQEEVNEQLEHENGSEFDVKQGSGKVGNRHKFKRALKFLSKSLLALFLFCIFIVIPLLFGLWYREQRLLIGYCGHEVPSHRVSGNSFEFIQKLDNLLQDYRPKCIPCPPNGICYPYLKLKCKPDYKLAPSRLDFLEIIPAQGKCVKDDKKQQLVSEVVEKSLEFLRAKNAQISCGDGKDDIESGMTEDALYQIFNEARAPWIRDDEFEDLWIQVIKDLTEEPEILWRQLSPTDNNIGGNSNNIIKTNDVPRQKRHLPEKFISKTRNFRSTSKKYIGMKCRFEREIYQTYKKFQRPIWLMFLLIVISKVIEIKLKNYYRKKARIEELVTQTMEKLKFQKIKSMSDPKENAYLSIVQLRDIFLSDIVDLKYKNQLWSEVVKYLEHNNSNIKSNLTEIRGEIMKCWEWIGPMELNEPKDSAENKI
B2: Slx5 (protein, UniProt P32828 1-619)
chain: MHSDTNGRTKSNNSPSDNNPNETVILIDSDKEEDASIREANLPVRLYPDRRVGRRRDALNRFVRSDSRSRNSQRTHITASSERPDFQANNDDITIIREVGRFFGDDGPIDPSAHYVDLDQEPGSETLETPRTIQVDNTNGYLNDNGNNNESDDGLTIVEERTTRPRVTLNLPGGERLEVTATTTDIPIRRSFEFQEDLGASRRQLLRRSATRARNLFVDRSDENDEDWTDDTHNLPEAIQRARRESRMRMSRRIAERQRRVQQQRVSSDENISTSIRLQSIRERIQSYTPDIRSAFHRAESLHEFRSILQNVAPITLQECEEELMALFTEFRNQLLQNWAIDRVRNTQEEALRLHREALERQERTAGRVFHRGTLRESITNYLNFNGEDGFLSRLWSGPALSDADEERHTQNIIDMIQEREERERDVVMKNLMNKTRAQQEEFEARAASLPEGYSASFDTTPKMKLDITKNGKEETIIVTDDDLAKTLEDIPVCCLCGAELGVGIPDDFTGISQKDRGVSFEGLVSKYKFHCPYQTLARPSMLDRDLSKRTFIASCGHAFCGRCFARIDNAKKKSKMPKKKLAQLKGSAHPDNYGPKLCPADSCKKLIRSRGRLKEVYF

How the values were obtained:
[1] = target: Nur1Δ54^3HA (S. cerevisiae); assay: co-IP
[2] = target: GFP-tagged SUMO^Q95P (S. cerevisiae) [SUMO: Q12306]; assay: co-IP

Row | Binder | binding [1] | binding [2]
1 | B1 | binds | 
2 | B2 |  | binds

Results are given in words; binding and its absence hold for the method and conditions named. In cells and extracts the contact can be indirect. Binding can be weak; no strength is given. For some assays here: Where a sequence is shown, tags or fusion partners need not be part of it.
